The test system of the assay is CD2F1 mice, L1210 leukemia ip, survival T/C. As to the kind of experiment: NCI In Vivo Anticancer Drug Screen. Data for tumor model L1210 Leukemia (intraperitoneal) in CD2F1 (CDF1) mice. The following applies: higher T/C = longer survival. The gist of the method: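 Activity against a transplanted murine tumor was judged by comparing the compound group with a vehicle group. The outcome in the treated animals was divided by that in the controls.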

Where [1] appears, read: T/C endpoint: mean survival time, dose: 400.0 mg/kg/injection, schedule: Q04DX003 (ip), vehicle: saline with Tween-80.
Where [2] appears, read: T/C endpoint: mean survival time, dose: 100.0 mg/kg/injection, schedule: Q04DX003 (ip), vehicle: saline with Tween-80.
[3] abbreviates: T/C endpoint: mean survival time, dose: 200.0 mg/kg/injection, schedule: Q04DX003 (ip), vehicle: saline with Tween-80.
The mark [4] stands for this setting: T/C endpoint: mean survival time, dose: 100.0 mg/kg/injection, schedule: Q01DX009 (ip), vehicle: saline with Tween-80.
Setting [5] is: T/C endpoint: mean survival time, dose: 200.0 mg/kg/injection, schedule: Q01DX009 (ip), vehicle: saline with Tween-80.
The mark [6] stands for this setting: T/C endpoint: mean survival time, dose: 400.0 mg/kg/injection, schedule: Q01DX009 (ip), vehicle: saline with Tween-80.
Where [7] appears, read: T/C endpoint: mean survival time, dose: 400.0 mg/kg/injection, schedule: Q04DX003 (ip), vehicle: saline.
Where [8] appears, read: T/C endpoint: mean survival time, dose: 150.0 mg/kg/injection, schedule: Q01DX001 (ip), vehicle: saline.
[9] abbreviates: T/C endpoint: mean survival time, dose: 300.0 mg/kg/injection, schedule: Q01DX001 (ip), vehicle: saline.
The mark [10] stands for this setting: T/C endpoint: mean survival time, dose: 100.0 mg/kg/injection, schedule: Q04DX003 (ip), vehicle: saline.
The mark [11] stands for this setting: T/C endpoint: mean survival time, dose: 200.0 mg/kg/injection, schedule: Q04DX003 (ip), vehicle: saline.
[12] abbreviates: T/C endpoint: mean survival time, dose: 100.0 mg/kg/injection, schedule: Q01DX009 (ip), vehicle: Klucel (hydroxypropylcellulose) (HPC).
[13] abbreviates: T/C endpoint: mean survival time, dose: 200.0 mg/kg/injection, schedule: Q01DX009 (ip), vehicle: Klucel (hydroxypropylcellulose) (HPC).
Where [14] appears, read: T/C endpoint: mean survival time, dose: 400.0 mg/kg/injection, schedule: Q01DX009 (ip), vehicle: Klucel (hydroxypropylcellulose) (HPC).

This is an account of results in PubChem BioAssay AID256 (DTP/NCI, 2004).

The list is a part of this screen's results and no random one: it is rich in T/C values a quarter to a half above the control, in often repeated tests (any T/C) and in doses without a T/C. Further doses and runs are listed elsewhere. T/C gives the treated animals as a percentage of the vehicle group. Some doses have a count of surviving animals in place of a T/C: the source files T/C as zero there, which appears to mark a toxic dose or a test without result, not a measured value. Some doses without a T/C left all or most animals alive at the check, yet need not have been tolerated: survival well below the control is almost never listed, so the zero probably covers shortened survival too. Survivors were counted at the toxicity check, usually on the fifth day, unless a day is given; later deaths do not show. Schedules are NCI's codes, read here as Q, the interval in days (D) or hours (H), X, the number of doses. Where survival is the endpoint, this PubChem deposit counts one and a half times the control or more as active, and values a quarter to a half above the control carry no call in these data; other NCI protocols may use other cut-offs. Counts like (3×) count equal records among those shown. Some entries were tested several times; the results are listed from low to high.

For the molecule `Nc1ncnc2c1c1c(=S)[nH]c(=O)[nH]c1n2C1OC(CO)C(O)C1O` (stereo not drawn), the survivor count is, setting by setting: (T/C endpoint: mean survival time, dose: 200.0 mg/kg/injection, schedule: Q01DX005 (ip), vehicle: distilled water + Tween-80) 0 of 4; (T/C endpoint: mean survival time, dose: 400.0 mg/kg/injection, schedule: Q01DX005 (ip), vehicle: distilled water + Tween-80) 0 of 4.
Consider `COC(=O)C[C@](O)(CCC(C)(C)O)C(=O)O[C@@H]1C(OC)=C[C@]23CCCN2CCc2cc4c(cc2[C@H]13)OCO4`, for which the T/C is 128 % of control (T/C endpoint: median survival time, dose: 0.25 mg/kg/injection, schedule: Q01DX009 (ip), vehicle: saline); 128 and 132 % of control (T/C endpoint: median survival time, dose: 1.0 mg/kg/injection, schedule: Q01DX009 (ip), vehicle: saline); 133 % of control (2×) (T/C endpoint: median survival time, dose: 2.0 mg/kg/injection, schedule: Q01DX009 (ip), vehicle: saline); 130 % of control (T/C endpoint: median survival time, dose: 4.0 mg/kg/injection, schedule: Q01DX009 (ip), vehicle: saline).
Regarding `O=[N+]([O-])c1ccc(C(F)(F)F)cc1`, the survivor count under setting [1] is 6 of 6.
`Cc1cc(N(CCOS(C)(=O)=O)CCOS(C)(=O)=O)ccc1C=Nc1ccc(C(=O)O)c(O)c1`: the T/C by setting is: (T/C endpoint: mean survival time, dose: 6.25 mg/kg/injection, schedule: Q01DX009 (ip), vehicle: saline with Tween-80) 135 % of control; (T/C endpoint: mean survival time, dose: 9.0 mg/kg/injection, schedule: Q01DX009 (ip), vehicle: saline with Tween-80) 135 % of control. Besides, the survivor count (T/C endpoint: mean survival time, dose: 25.0 mg/kg/injection, schedule: Q01DX009 (ip), vehicle: saline with Tween-80) was 2 of 6.
On to `CC1(C)N=C(N)N=C(N)N1c1ccc(CCc2ccccc2)cc1`, for which the survivor count is, setting by setting: (T/C endpoint: mean survival time, dose: 50.0 mg/kg/injection, schedule: Q01DX009 (ip), vehicle: saline with Tween-80) 3 of 6; under setting [2], 5 of 6; under setting [3], 0 of 6; under setting [1], 0 of 6.
On to `CC(=O)CC(=O)Nc1ccccc1`, for which the survivor count is, setting by setting: under setting [4], 3 of 6; under setting [5], 0 of 6; under setting [6], 0 of 6.
As for `CC(C)C[P+](c1ccccc1)(c1ccccc1)c1ccccc1`, the survivor count (T/C endpoint: mean survival time, dose: 150.0 mg/kg/injection, schedule: Q01DX001 (ip), vehicle: other) is 2 of 6 and the survivor count (T/C endpoint: mean survival time, dose: 300.0 mg/kg/injection, schedule: Q01DX001 (ip), vehicle: other) is 0 of 6.
Consider `CCOC(=O)c1cc(C)nc2c(Cl)cc(Cl)cc12`, for which, under setting [6], the survivor count is listed as 5 of 6.
For the molecule `C=CC[n+]1cccc2ccccc21`, the survivor count is on record as 0 of 6 under setting [3] and 0 of 6 under setting [1].
As for `CCCCC(CC)COP(=O)(CC(CC)CCCC)OCC(CC)CCCC` (stereo not drawn), under setting [7], the survivor count is given as 6 of 6.
Regarding `COc1ccc(C(=O)c2cccc3c2-c2ccccc2C3(c2ccc(OC)c(C)c2)c2ccc(OC)c(C)c2)cc1C`, the survivor count (T/C endpoint: mean survival time, dose: 20.0 mg/kg/injection, schedule: Q01DX001 (ip), vehicle: other) is listed as 6 of 6.
For `CCOC(=O)c1ccc(N/C(C)=C/C(=O)OC)cc1`, the survivor count (T/C endpoint: mean survival time, dose: 300.0 mg/kg/injection, schedule: Q04DX003 (ip), vehicle: saline) is given as 3 of 6.
As for `Clc1cccc(-n2ccnc2)c1`, the survivor count under setting [6] was 5 of 6.
On to `C/C(=N\NC(N)=S)c1ccc2cc3c(cc2c1)OCO3`, for which the survivor count by setting is: under setting [8], 0 of 6; under setting [9], 0 of 6.
As to `COC(=O)C1=CCC[N+](C)(C)C1`, the survivor count (T/C endpoint: mean survival time, dose: 12.5 mg/kg/injection, schedule: Q04DX002 (ip), vehicle: saline) is 1 of 3; the survivor count (T/C endpoint: mean survival time, dose: 25.0 mg/kg/injection, schedule: Q04DX002 (ip), vehicle: saline) is reported as 0 of 3; the survivor count (T/C endpoint: mean survival time, dose: 100.0 mg/kg/injection, schedule: Q04DX002 (ip), vehicle: saline) is 0 of 3; the survivor count (T/C endpoint: mean survival time, dose: 200.0 mg/kg/injection, schedule: Q04DX002 (ip), vehicle: saline) was 0 of 3; the survivor count (T/C endpoint: mean survival time, dose: 400.0 mg/kg/injection, schedule: Q04DX002 (ip), vehicle: saline) is on record as 0 of 3.
On to `O=[N+]([O-])c1ccccn1`, for which the survivor count is given as 1 of 6 under setting [10], 0 of 6 under setting [11] and 0 of 6 under setting [7].
For the molecule `OCC(F)(F)F`, the survivor count by setting is: (T/C endpoint: mean survival time, dose: 200.0 mg/kg/injection, schedule: Q01DX009 (ip), vehicle: saline) 3 of 6; (T/C endpoint: mean survival time, dose: 400.0 mg/kg/injection, schedule: Q01DX009 (ip), vehicle: saline) 0 of 6.
With `O=C(Nc1ccc2cc(S(=O)(=O)O)ccc2c1)c1ccc(N=Nc2c(S(=O)(=O)O)cc3cc(S(=O)(=O)O)cc(NC(=O)c4ccccc4)c3c2O)cc1`, the survivor count under setting [5] is on record as 3 of 6.
For `C=C1C(=O)OC2CCN3CC=C(COC(=O)C(C)(O)C4(CO4)C1C)C23` (stereo not drawn), the survivor count by setting is: under setting [8], 1 of 6; under setting [9], 0 of 6.
For the molecule `COC(C)(C)O/N=C(\C[n+]1ccccc1)c1ccccc1`, the survivor count is on record as 0 of 6 (T/C endpoint: mean survival time, dose: 100.0 mg/kg/injection, schedule: Q01DX009 (ip), vehicle: water) and 0 of 6 (T/C endpoint: mean survival time, dose: 200.0 mg/kg/injection, schedule: Q01DX009 (ip), vehicle: water).
Consider `O=c1[nH]c(=O)n([C@H]2CCCO2)cc1F`, for which the T/C runs as follows: under setting [4], 137 % of control; (T/C endpoint: mean survival time, dose: 200.0 mg/kg/injection, schedule: Q01DX005 (ip), vehicle: other) 138 % of control; under setting [5], 132 % of control; under setting [11], 129 % of control; (T/C endpoint: mean survival time, dose: 450.0 mg/kg/injection, schedule: Q04DX003 (iv), vehicle: saline with Tween-80) 131 % of control; (T/C endpoint: mean survival time, dose: 900.0 mg/kg/injection, schedule: Q04DX003 (ip), vehicle: saline with Tween-80) 131 % of control. Moreover, the T/C (T/C endpoint: mean survival time, dose: 900.0 mg/kg/injection, schedule: Q04DX003 (iv), vehicle: saline with Tween-80) was 125 % of control.
Regarding `O=C(NO)c1cccnc1`, the T/C (T/C endpoint: mean survival time, dose: 400.0 mg/kg/injection, schedule: Q01DX009 (ip), vehicle: other) was 136 % of control and the T/C (T/C endpoint: mean survival time, dose: 600.0 mg/kg/injection, schedule: Q01DX009 (ip), vehicle: other) is 136 % of control.
With `[Cl][Pt][Cl].c1ccc([AsH](CC[AsH](c2ccccc2)c2ccccc2)c2ccccc2)cc1`, the survivor count is reported as 1 of 4 under setting [3] and 0 of 4 under setting [1].
As for `CSC(=C[N+](=O)[O-])SC`, the survivor count is, setting by setting: under setting [12], 1 of 6; under setting [13], 0 of 6; under setting [14], 0 of 6.
As to `O=[N+]([O-])c1c(Br)sc(Br)c1[N+](=O)[O-]`, the survivor count is 5 of 6 under setting [2], 1 of 6 under setting [3] and 0 of 6 under setting [1].
For the molecule `CC(=O)ON1C(=O)C=CC1=O`, the survivor count reads like this: under setting [12], 5 of 6; under setting [13], 2 of 6; under setting [14], 0 of 6.
For the molecule `O=C1c2ccccc2C(=O)c2c(NCCNCCNCCO)ccc(NCCNCCNCCO)c21`, under “T/C endpoint: mean survival time, dose: 128.0 mg/kg/injection, schedule: Q01DX009 (ip), vehicle: acid diluted with saline”, the survivor count was 3 of 6.
Take `CCCC(CC)(C[NH-])C[NH-].[Cl][Pt+2][Cl]`: the T/C was 143 % of control (T/C endpoint: mean survival time, dose: 25.0 mg/kg/injection, schedule: Q04DX003 (ip), vehicle: saline) and 135 % of control under setting [10].
Take `O=C(Nc1ccccc1C(=O)O)c1ccccc1`: the survivor count is 3 of 6 under setting [3] and 1 of 6 under setting [1].
